Values quoted from earlier work, collected in patent US20260076970A1, “CANCER TREATMENT USING MTDP INHIBITORS AND PLK1 INHIBITORS” (Cardiff Oncology, Inc., priority 2022, published 2026).

Details: cited from earlier work

## CC(=O)O[C@H]1C(=O)[C@@]2(C)[C@H]([C@H](OC(=O)c3ccccc3)[C@]3(O)C[C@H](OC(=O)[C@H](O)[C@@H](NC(=O)c4ccccc4)c4ccccc4)C(C)=C1C3(C)C)[C@]1(OC(C)=O)CO[C@@H]1C[C@@H]2O [paclitaxel, 5β,20-Epoxy-1,2α,4,7β,10β,13α-hexahydroxytax-11-en-9-one 4,10-diacetate 2-benzoate 13-ester with (2R,3S)-N-benzoyl-3-phenylisoserine]
  solubility in water: insoluble in water
